# Results deposited as PubChem BioAssay AID1671195 (Yale University, 2021).
# Purpose: 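Regulators of LDL receptor activity judged by labelled LDL uptake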 (primary screen)
# Cell system: human Huh7 hepatoma cells
# Reagent: siRNA pool against human genes, 18 nM
# Timing: about 2 to 2.5 days of knockdown, then 8 h LDL uptake
# Treatment: DiI-labelled LDL at 30 µg/ml for 8 h, in lipoprotein-deficient serum medium
# Measured: 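Fluorescent LDL signal imaged in cells, scaled to the plate median, robust z-score for each replicate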
# Reading the numbers: robust z-score: higher = more LDL uptake after knockdown
# Rule for the call: 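Active when two or more replicates show a robust z-score above 2 or below -2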
# The deposit covers about 22,000 reagents; shown is an unselected part. Of all reagents, about 1,510 (6.9%) are marked active. 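Active includes knockdowns raising or lowering LDL uptake; positive z-scores mean more uptake, negative mean less.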 A number with no mark means an inactive call.
target,"robust z-score, replicate 1","robust z-score, replicate 2","robust z-score, replicate 3"
ABCC4 (ATP binding cassette subfamily C member 4 (PEL blood group)),-0.0754,-0.0308,-0.23
KLC4 (kinesin light chain 4),0.451,0.495,-0.685
SRSF5 (serine and arginine rich splicing factor 5),-0.809,-0.826,-0.027
CABP5 (calcium binding protein 5),0.249,0.619,0.561
TUBA1B (tubulin alpha 1b),-1.4,-1.81,-1.35
TAF1D,0.169,-0.457,-0.162
FAM131C (family with sequence similarity 131 member C),-0.0801,-0.355,0.205
EFNB2 (ephrin B2),2.43 (active),2.91,1.73
KCTD11 (potassium channel tetramerization domain containing 11),0.154,0.474,0.771
SUPV3L1 (Suv3 like RNA helicase),0.817,1.15,0.959
"PMPCB (peptidase, mitochondrial processing subunit beta)",-1.49,-1.1,-1.73
CFHR2 (complement factor H related 2),0.867,-0.948,0.29
SMCP (sperm mitochondria associated cysteine rich protein),0.525,0.707,0.754
SLC27A2,-1.01,-0.57,-0.551
BCL7A (BAF chromatin remodeling complex subunit BCL7A),-0.713,-1.72,-0.134
EIF1AY (eukaryotic translation initiation factor 1A Y-linked),-0.0289,0.101,0.571
"TLE4 (TLE family member 4, transcriptional corepressor)",1.2,0.811,0.639
NUP155 (nucleoporin 155),1.2,0.859,1.12
LOC388114 (retired record),0.575,-0.0859,0.0364
LOC440025 (retired record),-1.18,-0.445,-1.35
TRIM64 (tripartite motif containing 64),0.275,0.786,0.891
LOC440868 (retired record),-0.632,-0.272,-0.667

The list goes on, starting with the last 4 of the part before.
target,"robust z-score, replicate 1","robust z-score, replicate 2","robust z-score, replicate 3"
LOC388114 (retired record),0.575,-0.0859,0.0364
LOC440025 (retired record),-1.18,-0.445,-1.35
TRIM64 (tripartite motif containing 64),0.275,0.786,0.891
LOC440868 (retired record),-0.632,-0.272,-0.667
NKD1 (NKD inhibitor of Wnt signaling pathway 1),-0.402,-0.303,-0.6
GRK1 (G protein-coupled receptor kinase 1),-1.17,-1.15,-1.42
TNK2 (tyrosine kinase non receptor 2),0.343,-0.356,-0.0543
ARRDC1-AS1 (ARRDC1 antisense RNA 1),0.878,0.548,-0.0818
MAML2 (mastermind like transcriptional coactivator 2),-0.298,-0.318,-0.288
PHYHIP (phytanoyl-CoA 2-hydroxylase interacting protein),-0.891,-1.11,0.568
APOL1 (apolipoprotein L1),1.25,-0.575,-0.106
KLK5 (kallikrein related peptidase 5),0.221,0.175,0.794
PPIAP55 (peptidylprolyl isomerase A pseudogene 55),-0.573,-0.256,-0.252
"RAB32 (RAB32, member RAS oncogene family)",-0.396,-0.743,-0.039
LOC390386 (retired record),-0.641,-0.733,-0.611
TUBA4A (tubulin alpha 4a),0.256,0.23,0.237
LOC441828 (retired record),-0.599,1.9,1.65
SEC61A2 (SEC61 translocon subunit alpha 2),-0.653,2.56,0.81
TMEM144 (transmembrane protein 144),-1.11,1.61,0.607
LOC387762 (retired record),-0.292,-0.46,-0.621
LRRC19 (leucine rich repeat containing 19),2.64 (active),2.71,2.44
EYA1 (EYA transcriptional coactivator and phosphatase 1),1.23,1.17,0.312
OLIG2 (oligodendrocyte transcription factor 2),-0.935,-0.915,-0.976
SLC22A2,-1.69,-1.82,-1.9
PTAFR (platelet activating factor receptor),0.0891,0.285,-0.0352
CMSS1 (cms1 ribosomal small subunit homolog),-1.04,-1.19,-1.7
GPR174 (G protein-coupled receptor 174),-2.08,1.16,0.15
ZNF318 (zinc finger protein 318),0.601,1.49,2.29
TSGA10IP (testis specific 10 interacting protein),-0.0156,0.186,-0.036
CXCL11 (C-X-C motif chemokine ligand 11),0.312,0.41,0.0852
TBX4 (T-box transcription factor 4),1.14,0.924,0.879
LOC285658 (retired record),-1.68,-1.33,-1.54
DIABLO (diablo IAP-binding mitochondrial protein),-0.668,-0.651,-0.724
CES2 (carboxylesterase 2),-0.46,0.688,0.86
"RLIM (ring finger protein, LIM domain interacting)",0.343,0.565,0.319
LINC01344 (long independently transcribed non-coding RNA 1344),0.256,-0.0937,0.029
LOC441316 (retired record),-0.36,0.199,1.06
RPF1 (ribosome production factor 1 homolog),-0.325,-0.0964,-0.321
TSR1 (TSR1 ribosome maturation factor),0.927,2.65,1.58
TMED7 (transmembrane p24 trafficking protein 7),-0.191,-1.64,-0.195
CACUL1 (CDK2 associated cullin domain 1),1.22,-0.45,0.735
CNTN6 (contactin 6),0.525,-0.142,-0.203
RERE (arginine-glutamic acid dipeptide repeats),-0.865,-0.166,-1.32
LOC440480 (retired record),-0.747,-0.973,-0.838
SERF2 (small EDRK-rich factor 2),-0.577,-0.214,-0.773
LOC442009 (retired record),0.41,0.644,0.579
"PNPLA1 (patatin like domain 1, omega-hydroxyceramide transacylase)",-1.75,-1.76,-1.49
ZNF564 (zinc finger protein 564),-1.34,-1.66,-1.32
TIRAP (TIR domain containing adaptor protein),-1.02,-0.696,-0.513
KIR3DL1,1.8 (active),2.68,3.68
